# Changes are numbered by the printed parent chain. Some of the results follow. For part of these data: At the low end of the ranking the order means little.
# Assays:
# Details in all cases: yeast three-hybrid, YBZ-1, SC-Leu-His + 0.5 mM 3-AT, 4 days
# [1] = molecular target: T1, PUM1 PUF domain R5-NAR C1007N + R1008A + Q1011R (Homo sapiens) (UniProt Q14671)
# T1 sequence: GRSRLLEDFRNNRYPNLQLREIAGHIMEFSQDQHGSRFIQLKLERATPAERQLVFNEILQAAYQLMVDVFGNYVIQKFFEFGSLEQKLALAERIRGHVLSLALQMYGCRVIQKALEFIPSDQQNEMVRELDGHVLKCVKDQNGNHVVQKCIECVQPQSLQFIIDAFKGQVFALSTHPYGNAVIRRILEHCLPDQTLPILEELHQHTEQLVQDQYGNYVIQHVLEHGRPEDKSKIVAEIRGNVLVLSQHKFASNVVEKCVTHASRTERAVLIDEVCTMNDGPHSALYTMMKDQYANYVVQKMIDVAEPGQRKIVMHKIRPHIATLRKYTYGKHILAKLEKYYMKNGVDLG
# [2] = molecular target: T2, PUM1 PUF domain R5-NDG C1007N + R1008D + Q1011G (UniProt Q14671)
# T2 sequence: T1 sequence with A181D, R184G
# [3] = molecular target: T3, PUM1 PUF domain R5-NTR C1007N + R1008T + Q1011R (Homo sapiens) (UniProt Q14671)
# T3 sequence: T1 sequence with A181T
# [4] = molecular target: T4, PUM1 PUF domain R5-PRC C1007P + Q1011C (Homo sapiens) (UniProt Q14671)
# T4 sequence: T1 sequence with N180P, A181R, R184C
# [5] = molecular target: T5, PUM1 PUF domain R5-QAR C1007Q + R1008A + Q1011R (Homo sapiens) (UniProt Q14671)
# T5 sequence: T1 sequence with N180Q
# [6] = molecular target: T6, PUM1 PUF domain R5-QNR C1007Q + R1008N + Q1011R (Homo sapiens) (UniProt Q14671)
# T6 sequence: T1 sequence with N180Q, A181N
# [7] = molecular target: T7, PUM1 PUF domain R5-QSR C1007Q + R1008S + Q1011R (UniProt Q14671)
# T7 sequence: T1 sequence with N180Q, A181S
# [8] = molecular target: T8, PUM1 PUF domain R5-QVR C1007Q + R1008V + Q1011R (Homo sapiens) (UniProt Q14671)
# T8 sequence: T1 sequence with N180Q, A181V
# [9] = molecular target: T9, PUM1 PUF domain R5-RAA C1007R + R1008A + Q1011A (UniProt Q14671)
# T9 sequence: T1 sequence with N180R, R184A
# [10] = molecular target: T10, PUM1 PUF domain R5-RAD C1007R + R1008A + Q1011D (UniProt Q14671)
# T10 sequence: T1 sequence with N180R, R184D
# [11] = molecular target: T11, PUM1 PUF domain R5-RAM C1007R + R1008A + Q1011M (Homo sapiens) (UniProt Q14671)
# T11 sequence: T1 sequence with N180R, R184M
# [12] = molecular target: T12, PUM1 PUF domain R5-RAQ C1007R + R1008A (Homo sapiens) (UniProt Q14671)
# T12 sequence: T1 sequence with N180R, R184Q
# [13] = molecular target: T13, PUM1 PUF domain R5-RAR C1007R + R1008A + Q1011R (Homo sapiens) (UniProt Q14671)
# T13 sequence: T1 sequence with N180R
# [14] = molecular target: T14, PUM1 PUF domain R5-RAS C1007R + R1008A + Q1011S (UniProt Q14671)
# T14 sequence: T1 sequence with N180R, R184S
# [15] = molecular target: T15, PUM1 PUF domain R5-RAT C1007R + R1008A + Q1011T (Homo sapiens) (UniProt Q14671)
# T15 sequence: T1 sequence with N180R, R184T
# [16] = molecular target: T16, PUM1 PUF domain R5-RAV C1007R + R1008A + Q1011V (UniProt Q14671)
# T16 sequence: T1 sequence with N180R, R184V
# [17] = molecular target: T17, PUM1 PUF domain R5-RCC C1007R + R1008C + Q1011C (Homo sapiens) (UniProt Q14671)
# T17 sequence: T1 sequence with N180R, A181C, R184C
# [18] = molecular target: T18, PUM1 PUF domain R5-RCD C1007R + R1008C + Q1011D (UniProt Q14671)
# T18 sequence: T1 sequence with N180R, A181C, R184D
# [19] = molecular target: T19, PUM1 PUF domain R5-RCG C1007R + R1008C + Q1011G (Homo sapiens) (UniProt Q14671)
# T19 sequence: T1 sequence with N180R, A181C, R184G
# [20] = molecular target: T20, PUM1 PUF domain R5-RCK C1007R + R1008C + Q1011K (Homo sapiens) (UniProt Q14671)
# T20 sequence: T1 sequence with N180R, A181C, R184K
# [21] = molecular target: T21, PUM1 PUF domain R5-RCL C1007R + R1008C + Q1011L (Homo sapiens) (UniProt Q14671)
# T21 sequence: T1 sequence with N180R, A181C, R184L
# [22] = molecular target: T22, PUM1 PUF domain R5-RCR C1007R + R1008C + Q1011R (Homo sapiens) (UniProt Q14671)
# T22 sequence: T1 sequence with N180R, A181C
# [23] = molecular target: T23, PUM1 PUF domain R5-RCS C1007R + R1008C + Q1011S (Homo sapiens) (UniProt Q14671)
# T23 sequence: T1 sequence with N180R, A181C, R184S
# [24] = molecular target: T24, PUM1 PUF domain R5-RCV C1007R + R1008C + Q1011V (UniProt Q14671)
# T24 sequence: T1 sequence with N180R, A181C, R184V
# [25] = molecular target: T25, PUM1 PUF domain R5-RFP C1007R + R1008F + Q1011P (Homo sapiens) (UniProt Q14671)
# T25 sequence: T1 sequence with N180R, A181F, R184P
# [26] = molecular target: T26, PUM1 PUF domain R5-RGA C1007R + R1008G + Q1011A (UniProt Q14671)
# T26 sequence: T1 sequence with N180R, A181G, R184A
# [27] = molecular target: T27, PUM1 PUF domain R5-RGC C1007R + R1008G + Q1011C (Homo sapiens) (UniProt Q14671)
# T27 sequence: T1 sequence with N180R, A181G, R184C
# [28] = molecular target: T28, PUM1 PUF domain R5-RGD C1007R + R1008G + Q1011D (UniProt Q14671)
# T28 sequence: T1 sequence with N180R, A181G, R184D
# [29] = molecular target: T29, PUM1 PUF domain R5-RGE C1007R + R1008G + Q1011E (UniProt Q14671)
# T29 sequence: T1 sequence with N180R, A181G, R184E
# [30] = molecular target: T30, PUM1 PUF domain R5-RGG C1007R + R1008G + Q1011G (Homo sapiens) (UniProt Q14671)
# T30 sequence: T1 sequence with N180R, A181G, R184G
# [31] = molecular target: T31, PUM1 PUF domain R5-RGM C1007R + R1008G + Q1011M (Homo sapiens) (UniProt Q14671)
# T31 sequence: T1 sequence with N180R, A181G, R184M
# [32] = molecular target: T32, PUM1 PUF domain R5-RGP C1007R + R1008G + Q1011P (UniProt Q14671)
# T32 sequence: T1 sequence with N180R, A181G, R184P
# [33] = molecular target: T33, PUM1 PUF domain R5-RGQ C1007R + R1008G (Homo sapiens) (UniProt Q14671)
# T33 sequence: T1 sequence with N180R, A181G, R184Q
# [34] = molecular target: T34, PUM1 PUF domain R5-RGR C1007R + R1008G + Q1011R (Homo sapiens) (UniProt Q14671)
# T34 sequence: T1 sequence with N180R, A181G
# [35] = molecular target: T35, PUM1 PUF domain R5-RGS C1007R + R1008G + Q1011S (UniProt Q14671)
# T35 sequence: T1 sequence with N180R, A181G, R184S
# [36] = molecular target: T36, PUM1 PUF domain R5-RGT C1007R + R1008G + Q1011T (UniProt Q14671)
# T36 sequence: T1 sequence with N180R, A181G, R184T
# [37] = molecular target: T37, PUM1 PUF domain R5-RGV C1007R + R1008G + Q1011V (UniProt Q14671)
# T37 sequence: T1 sequence with N180R, A181G, R184V
# [38] = molecular target: T38, PUM1 PUF domain R5-RGW C1007R + R1008G + Q1011W (UniProt Q14671)
# T38 sequence: T1 sequence with N180R, A181G, R184W
# [39] = molecular target: T39, PUM1 PUF domain R5-RHR C1007R + R1008H + Q1011R (Homo sapiens) (UniProt Q14671)
# T39 sequence: T1 sequence with N180R, A181H
# [40] = molecular target: T40, PUM1 PUF domain R5-RKE C1007R + R1008K + Q1011E (Homo sapiens) (UniProt Q14671)
# T40 sequence: T1 sequence with N180R, A181K, R184E
# [41] = molecular target: T41, PUM1 PUF domain R5-RKG C1007R + R1008K + Q1011G (Homo sapiens) (UniProt Q14671)
# T41 sequence: T1 sequence with N180R, A181K, R184G
# [42] = molecular target: T42, PUM1 PUF domain R5-RKP C1007R + R1008K + Q1011P (Homo sapiens) (UniProt Q14671)
# T42 sequence: T1 sequence with N180R, A181K, R184P
sequence,measurement,setting,value
GGCUAGAACUAGUGGAUCCCCCGGCGCCCGGCGGCUCGAGCCCGGGUAAGUGUGAAUAGUCUGCAUGCCGCCGGGCGCCAUGCCUGCAGGUCGACUCUAGAAAACAUG,binding signal (log2 enrichment (interaction score)),[1],-1.72
same,binding signal (log2 enrichment (interaction score)),[2],< -7.98
same,binding signal (log2 enrichment (interaction score)),[3],-0.9
same,binding signal (log2 enrichment (interaction score)),[4],-1.17
same,binding signal (log2 enrichment (interaction score)),[5],-1.52
same,binding signal (log2 enrichment (interaction score)),[6],-0.22
same,binding signal (log2 enrichment (interaction score)),[7],-6.82
same,binding signal (log2 enrichment (interaction score)),[8],-1.69
same,binding signal (log2 enrichment (interaction score)),[9],-6.28
same,binding signal (log2 enrichment (interaction score)),[10],-3.34
same,binding signal (log2 enrichment (interaction score)),[11],-1.93
same,binding signal (log2 enrichment (interaction score)),[12],-0.45
same,binding signal (log2 enrichment (interaction score)),[13],-0.54
same,binding signal (log2 enrichment (interaction score)),[14],-2.19
same,binding signal (log2 enrichment (interaction score)),[15],-0.6
same,binding signal (log2 enrichment (interaction score)),[16],-4.53
same,binding signal (log2 enrichment (interaction score)),[17],-0.19
same,binding signal (log2 enrichment (interaction score)),[18],< -7.19
same,binding signal (log2 enrichment (interaction score)),[19],-1.34
same,binding signal (log2 enrichment (interaction score)),[20],-1.17
same,binding signal (log2 enrichment (interaction score)),[21],-1.8
same,binding signal (log2 enrichment (interaction score)),[22],-0.91
same,binding signal (log2 enrichment (interaction score)),[23],-1.19
same,binding signal (log2 enrichment (interaction score)),[24],-6.79
same,binding signal (log2 enrichment (interaction score)),[25],-0.41
same,binding signal (log2 enrichment (interaction score)),[26],-3.33
same,binding signal (log2 enrichment (interaction score)),[27],-2.22
same,binding signal (log2 enrichment (interaction score)),[28],-6.01
same,binding signal (log2 enrichment (interaction score)),[29],-4.12
same,binding signal (log2 enrichment (interaction score)),[30],-1.04
same,binding signal (log2 enrichment (interaction score)),[31],-0.59
same,binding signal (log2 enrichment (interaction score)),[32],-2.91
same,binding signal (log2 enrichment (interaction score)),[33],-0.79
same,binding signal (log2 enrichment (interaction score)),[34],-0.27
same,binding signal (log2 enrichment (interaction score)),[35],-3.15
same,binding signal (log2 enrichment (interaction score)),[36],-2.27
same,binding signal (log2 enrichment (interaction score)),[37],-3.42
same,binding signal (log2 enrichment (interaction score)),[38],-7.43
same,binding signal (log2 enrichment (interaction score)),[39],1.14
same,binding signal (log2 enrichment (interaction score)),[40],-1.18
same,binding signal (log2 enrichment (interaction score)),[41],-2.16
same,binding signal (log2 enrichment (interaction score)),[42],-0.89

# 10 entries from above, reformatted:
sequence	measurement	setting	value
GGCUAGAACUAGUGGAUCCCCCGGCGCCCGGCGGCUCGAGCCCGGGUAAGUGUGAAUAGUCUGCAUGCCGCCGGGCGCCAUGCCUGCAGGUCGACUCUAGAAAACAUG	binding signal (log2 enrichment (interaction score))	[14]	-2.19
same	binding signal (log2 enrichment (interaction score))	[15]	-0.6
same	binding signal (log2 enrichment (interaction score))	[16]	-4.53
same	binding signal (log2 enrichment (interaction score))	[17]	-0.19
same	binding signal (log2 enrichment (interaction score))	[18]	< -7.19
same	binding signal (log2 enrichment (interaction score))	[19]	-1.34
same	binding signal (log2 enrichment (interaction score))	[20]	-1.17
same	binding signal (log2 enrichment (interaction score))	[21]	-1.8
same	binding signal (log2 enrichment (interaction score))	[22]	-0.91
same	binding signal (log2 enrichment (interaction score))	[23]	-1.19
